Measurements from the supplement of paper PMC10849652.
Some of the results follow.

By UniProt entry, the sequences of proteins in these tests, tags left out. Where a name states a change or a piece, a line headed by the entry shows the natural chain unless it says otherwise.
UniProt P31949: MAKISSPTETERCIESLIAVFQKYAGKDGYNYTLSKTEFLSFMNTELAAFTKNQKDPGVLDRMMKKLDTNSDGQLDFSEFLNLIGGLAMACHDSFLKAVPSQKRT
UniProt Q6NW29: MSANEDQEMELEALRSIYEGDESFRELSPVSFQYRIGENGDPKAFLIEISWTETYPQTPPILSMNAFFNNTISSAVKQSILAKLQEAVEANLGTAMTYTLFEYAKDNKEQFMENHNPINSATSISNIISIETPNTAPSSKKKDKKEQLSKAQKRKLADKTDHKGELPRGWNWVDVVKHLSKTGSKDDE
UniProt O95059: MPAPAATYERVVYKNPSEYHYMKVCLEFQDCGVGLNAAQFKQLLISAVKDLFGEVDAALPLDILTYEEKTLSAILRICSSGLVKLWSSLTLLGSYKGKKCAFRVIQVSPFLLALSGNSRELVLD
UniProt O43818: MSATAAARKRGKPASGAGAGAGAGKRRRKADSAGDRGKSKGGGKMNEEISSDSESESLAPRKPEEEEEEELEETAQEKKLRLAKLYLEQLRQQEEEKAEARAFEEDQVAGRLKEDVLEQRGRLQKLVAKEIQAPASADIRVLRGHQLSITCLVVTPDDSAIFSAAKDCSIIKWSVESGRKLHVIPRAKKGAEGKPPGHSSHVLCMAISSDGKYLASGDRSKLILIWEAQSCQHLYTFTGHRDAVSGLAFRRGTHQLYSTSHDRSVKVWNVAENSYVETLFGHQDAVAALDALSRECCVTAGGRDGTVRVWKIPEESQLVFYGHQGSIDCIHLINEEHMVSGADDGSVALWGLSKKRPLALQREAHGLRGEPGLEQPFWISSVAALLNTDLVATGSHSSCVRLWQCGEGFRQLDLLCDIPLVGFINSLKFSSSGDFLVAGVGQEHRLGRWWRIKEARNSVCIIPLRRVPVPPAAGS
UniProt P05386, whole entry, looked up: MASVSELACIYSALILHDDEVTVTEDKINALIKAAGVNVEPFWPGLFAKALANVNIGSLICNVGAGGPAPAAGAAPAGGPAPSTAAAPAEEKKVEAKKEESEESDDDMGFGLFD
UniProt Q6PCB5: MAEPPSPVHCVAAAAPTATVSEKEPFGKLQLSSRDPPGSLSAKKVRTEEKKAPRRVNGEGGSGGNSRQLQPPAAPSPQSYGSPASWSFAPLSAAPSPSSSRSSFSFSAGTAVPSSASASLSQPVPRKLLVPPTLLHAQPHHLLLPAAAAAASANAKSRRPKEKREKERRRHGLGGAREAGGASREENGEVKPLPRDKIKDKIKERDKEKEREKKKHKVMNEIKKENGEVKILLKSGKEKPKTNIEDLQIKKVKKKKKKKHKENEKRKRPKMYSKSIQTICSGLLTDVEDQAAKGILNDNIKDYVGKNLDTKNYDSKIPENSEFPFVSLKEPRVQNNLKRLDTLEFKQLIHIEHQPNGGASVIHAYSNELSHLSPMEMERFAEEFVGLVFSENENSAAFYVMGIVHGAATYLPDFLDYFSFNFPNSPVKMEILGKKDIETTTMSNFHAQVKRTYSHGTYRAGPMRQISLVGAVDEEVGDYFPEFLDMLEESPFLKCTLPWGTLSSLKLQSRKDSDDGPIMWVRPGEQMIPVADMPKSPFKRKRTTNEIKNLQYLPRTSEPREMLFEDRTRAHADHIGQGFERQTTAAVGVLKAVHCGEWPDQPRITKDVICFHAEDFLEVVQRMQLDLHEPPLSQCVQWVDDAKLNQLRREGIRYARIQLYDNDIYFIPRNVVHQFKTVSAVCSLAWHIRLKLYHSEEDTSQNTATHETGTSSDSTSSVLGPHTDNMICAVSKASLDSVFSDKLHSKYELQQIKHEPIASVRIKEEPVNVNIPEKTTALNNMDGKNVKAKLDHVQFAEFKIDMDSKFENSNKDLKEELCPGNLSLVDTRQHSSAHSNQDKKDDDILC
UniProt P23443: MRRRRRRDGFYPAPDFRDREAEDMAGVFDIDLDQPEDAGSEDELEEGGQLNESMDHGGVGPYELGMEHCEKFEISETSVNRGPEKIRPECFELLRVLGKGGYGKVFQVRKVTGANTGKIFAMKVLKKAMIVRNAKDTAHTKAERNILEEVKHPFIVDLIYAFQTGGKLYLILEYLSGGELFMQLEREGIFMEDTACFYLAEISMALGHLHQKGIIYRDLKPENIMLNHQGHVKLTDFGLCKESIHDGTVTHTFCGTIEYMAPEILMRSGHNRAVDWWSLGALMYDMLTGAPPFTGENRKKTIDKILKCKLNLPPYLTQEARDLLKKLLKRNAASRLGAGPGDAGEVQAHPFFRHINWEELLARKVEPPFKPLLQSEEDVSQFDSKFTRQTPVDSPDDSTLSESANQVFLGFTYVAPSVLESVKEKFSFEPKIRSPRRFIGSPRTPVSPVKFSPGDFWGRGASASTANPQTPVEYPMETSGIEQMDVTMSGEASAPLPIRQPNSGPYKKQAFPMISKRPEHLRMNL
UniProt P10301: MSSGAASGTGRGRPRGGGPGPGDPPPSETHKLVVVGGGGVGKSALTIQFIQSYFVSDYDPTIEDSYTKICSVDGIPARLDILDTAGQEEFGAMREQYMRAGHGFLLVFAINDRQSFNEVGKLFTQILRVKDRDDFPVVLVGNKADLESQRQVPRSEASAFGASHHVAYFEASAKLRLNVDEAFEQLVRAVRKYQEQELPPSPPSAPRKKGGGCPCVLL
UniProt Q5VZM2, whole entry, looked up: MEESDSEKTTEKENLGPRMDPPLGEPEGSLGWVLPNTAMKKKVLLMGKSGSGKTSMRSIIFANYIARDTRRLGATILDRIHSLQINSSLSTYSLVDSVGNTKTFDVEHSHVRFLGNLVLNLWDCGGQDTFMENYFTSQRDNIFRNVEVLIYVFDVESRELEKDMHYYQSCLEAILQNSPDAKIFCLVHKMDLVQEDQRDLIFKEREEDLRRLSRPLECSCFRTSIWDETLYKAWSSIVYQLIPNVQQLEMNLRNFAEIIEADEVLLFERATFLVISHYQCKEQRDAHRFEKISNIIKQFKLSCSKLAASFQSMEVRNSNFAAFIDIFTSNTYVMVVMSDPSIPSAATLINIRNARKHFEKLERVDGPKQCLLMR
UniProt Q8WWV3: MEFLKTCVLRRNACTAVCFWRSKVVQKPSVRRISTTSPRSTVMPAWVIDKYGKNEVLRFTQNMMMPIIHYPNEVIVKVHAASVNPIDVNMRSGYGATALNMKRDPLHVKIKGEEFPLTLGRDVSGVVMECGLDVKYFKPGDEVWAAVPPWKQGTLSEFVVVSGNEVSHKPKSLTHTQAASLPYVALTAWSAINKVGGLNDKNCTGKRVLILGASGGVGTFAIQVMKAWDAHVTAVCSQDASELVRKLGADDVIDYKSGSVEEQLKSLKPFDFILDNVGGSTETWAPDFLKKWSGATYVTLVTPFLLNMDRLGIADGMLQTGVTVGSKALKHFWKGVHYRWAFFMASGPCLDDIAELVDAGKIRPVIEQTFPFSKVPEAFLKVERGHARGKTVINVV
UniProt P62070: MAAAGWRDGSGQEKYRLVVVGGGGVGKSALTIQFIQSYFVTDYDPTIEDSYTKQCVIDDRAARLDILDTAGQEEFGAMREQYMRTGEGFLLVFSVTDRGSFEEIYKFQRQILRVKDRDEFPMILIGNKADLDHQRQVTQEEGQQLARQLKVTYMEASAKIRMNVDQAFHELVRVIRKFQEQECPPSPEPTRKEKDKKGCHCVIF
UniProt Q8IZ73: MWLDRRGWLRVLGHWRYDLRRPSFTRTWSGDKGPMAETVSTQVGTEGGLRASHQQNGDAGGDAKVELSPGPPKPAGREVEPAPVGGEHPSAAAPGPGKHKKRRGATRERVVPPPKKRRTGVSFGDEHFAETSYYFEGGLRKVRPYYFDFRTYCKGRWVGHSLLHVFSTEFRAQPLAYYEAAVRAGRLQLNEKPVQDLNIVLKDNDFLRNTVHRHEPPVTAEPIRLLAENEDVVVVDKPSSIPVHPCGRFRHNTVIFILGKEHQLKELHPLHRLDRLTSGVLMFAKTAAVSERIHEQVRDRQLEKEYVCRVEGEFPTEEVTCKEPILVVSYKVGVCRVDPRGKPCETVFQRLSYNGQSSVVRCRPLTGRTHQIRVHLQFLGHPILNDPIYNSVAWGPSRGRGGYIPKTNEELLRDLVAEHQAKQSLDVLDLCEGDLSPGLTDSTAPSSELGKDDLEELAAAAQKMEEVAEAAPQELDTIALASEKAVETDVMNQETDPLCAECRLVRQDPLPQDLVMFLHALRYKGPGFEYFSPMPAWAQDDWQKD
UniProt Q9Y3B9: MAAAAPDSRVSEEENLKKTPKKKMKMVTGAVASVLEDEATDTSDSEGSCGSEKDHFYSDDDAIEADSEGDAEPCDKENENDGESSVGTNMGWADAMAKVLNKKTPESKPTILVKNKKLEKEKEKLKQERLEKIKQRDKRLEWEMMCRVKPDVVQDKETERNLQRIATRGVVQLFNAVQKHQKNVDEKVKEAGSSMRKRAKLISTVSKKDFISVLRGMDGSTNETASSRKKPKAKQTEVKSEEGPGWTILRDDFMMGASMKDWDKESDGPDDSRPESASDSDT
UniProt O43159: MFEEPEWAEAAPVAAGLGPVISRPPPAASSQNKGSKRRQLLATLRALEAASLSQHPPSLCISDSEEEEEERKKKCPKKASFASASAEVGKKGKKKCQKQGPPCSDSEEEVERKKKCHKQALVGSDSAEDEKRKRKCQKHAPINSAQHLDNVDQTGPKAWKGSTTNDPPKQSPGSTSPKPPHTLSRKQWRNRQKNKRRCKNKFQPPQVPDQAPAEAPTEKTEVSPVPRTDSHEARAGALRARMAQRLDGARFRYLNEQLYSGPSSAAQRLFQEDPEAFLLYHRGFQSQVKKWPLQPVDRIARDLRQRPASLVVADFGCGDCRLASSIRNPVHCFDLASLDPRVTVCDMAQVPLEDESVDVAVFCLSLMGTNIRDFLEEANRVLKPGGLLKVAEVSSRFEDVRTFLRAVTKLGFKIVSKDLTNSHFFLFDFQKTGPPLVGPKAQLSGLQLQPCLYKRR
UniProt Q9Y3I0: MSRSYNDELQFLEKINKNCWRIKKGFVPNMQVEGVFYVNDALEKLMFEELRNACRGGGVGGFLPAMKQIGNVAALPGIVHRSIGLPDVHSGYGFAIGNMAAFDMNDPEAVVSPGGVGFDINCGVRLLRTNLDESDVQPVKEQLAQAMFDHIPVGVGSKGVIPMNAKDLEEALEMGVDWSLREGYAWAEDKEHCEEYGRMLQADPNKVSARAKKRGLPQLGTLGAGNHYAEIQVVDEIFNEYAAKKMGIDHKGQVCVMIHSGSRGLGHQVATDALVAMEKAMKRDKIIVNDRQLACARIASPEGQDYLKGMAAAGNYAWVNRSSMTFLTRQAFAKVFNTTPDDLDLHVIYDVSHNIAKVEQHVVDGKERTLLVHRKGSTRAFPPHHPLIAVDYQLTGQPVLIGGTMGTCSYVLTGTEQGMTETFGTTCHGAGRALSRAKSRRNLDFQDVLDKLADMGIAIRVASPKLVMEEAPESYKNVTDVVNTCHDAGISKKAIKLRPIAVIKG
UniProt Q7L3V2: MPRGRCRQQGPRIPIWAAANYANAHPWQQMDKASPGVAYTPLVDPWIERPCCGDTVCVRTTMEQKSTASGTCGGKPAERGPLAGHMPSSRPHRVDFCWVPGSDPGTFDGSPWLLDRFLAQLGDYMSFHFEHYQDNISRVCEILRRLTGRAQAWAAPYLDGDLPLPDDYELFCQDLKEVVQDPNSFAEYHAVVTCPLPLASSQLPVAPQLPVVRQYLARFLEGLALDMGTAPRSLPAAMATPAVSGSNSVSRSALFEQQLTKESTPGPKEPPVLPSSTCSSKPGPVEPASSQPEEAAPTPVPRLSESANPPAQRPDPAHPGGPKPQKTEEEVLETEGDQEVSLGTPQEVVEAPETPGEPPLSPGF
UniProt Q99584: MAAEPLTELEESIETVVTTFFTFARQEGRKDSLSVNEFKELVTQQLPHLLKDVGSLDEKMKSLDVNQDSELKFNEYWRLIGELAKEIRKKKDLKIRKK
UniProt Q96T51: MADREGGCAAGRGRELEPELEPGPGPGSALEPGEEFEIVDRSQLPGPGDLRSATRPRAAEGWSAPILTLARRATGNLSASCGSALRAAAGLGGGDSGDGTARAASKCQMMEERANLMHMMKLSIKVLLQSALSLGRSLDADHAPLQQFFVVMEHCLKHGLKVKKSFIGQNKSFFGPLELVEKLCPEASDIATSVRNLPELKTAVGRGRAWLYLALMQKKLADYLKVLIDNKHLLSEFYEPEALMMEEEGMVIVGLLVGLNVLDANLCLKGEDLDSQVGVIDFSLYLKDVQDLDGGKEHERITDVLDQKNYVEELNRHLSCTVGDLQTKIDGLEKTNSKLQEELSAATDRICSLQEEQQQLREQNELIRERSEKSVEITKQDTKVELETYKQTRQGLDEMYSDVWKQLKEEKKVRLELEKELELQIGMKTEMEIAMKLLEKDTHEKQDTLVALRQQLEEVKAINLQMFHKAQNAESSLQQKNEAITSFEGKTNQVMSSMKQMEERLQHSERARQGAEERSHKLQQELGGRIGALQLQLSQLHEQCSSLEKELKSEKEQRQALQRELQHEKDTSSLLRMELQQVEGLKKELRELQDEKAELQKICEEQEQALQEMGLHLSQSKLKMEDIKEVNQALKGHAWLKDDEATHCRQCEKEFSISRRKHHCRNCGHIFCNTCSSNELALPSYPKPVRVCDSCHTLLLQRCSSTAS

Tests used:
Assay in all cases: log2 fold change, soluble protein after heating vs DMSO (PISA); higher = thermal stabilisation; K562 lysate, 10 uM; active = over 0.2 and 3.5 SD of the protein, either way, in both replicates (recomputed)
[1] = compound: C#Cc1cccc(Nc2ncnc3cc(OCCOC)c(OCCOC)cc23)c1 [erlotinib]
Procedure, shortened: (§1)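 Following dounce homogenisation of K562 pellets in PBS pH 7.4 with 1 mM MgCl2, crude extract at 1 mg/mL protein was incubated for 30 min with 10 μM compound. Aliquots were then heated for 3 min over 48°C-58°C and pooled, NP-40 was added to 0.5% at 4°C, and soluble protein was recovered as the supernatant at 21,000xg for 90 min. Channel-sum-equalised TMTpro 16plex LC-MS/MS quantified this protein. Each value, from duplicates, is a log-two fold change in thermal stability relative to solvent controls.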

[2] = compound: C/C(=N\NC(=O)C1=CC(=CC=C1)S(=O)(=O)N2CCOCC2)/C3=C(C=CC(=C3)Cl)O
Procedure, shortened: as §1

[3] = compound: C1=CC(=CC=C1C2=NC3=C(N2)C=C(C=C3)C(=O)N)OC4=CC=C(C=C4)Cl
Procedure, shortened: as §1

[4] = compound: C1=CC2=C(C=CC(=C2)/C=C\3/C(=O)NC(=NCC4=CC=CS4)S3)N=C1
Procedure, shortened: as §1

[5] = compound: C1=CC2=NC=CN=C2C=C1/C=C/3\C(=O)NC(=O)S3
Procedure, shortened: as §1

[6] = compound: C1=CC=C(C=C1)C2=NC(=C(N2)C3=CC=NC=C3)C4=CC(=C(C=C4)Cl)O
Procedure, shortened: as §1

[7] = compound: C1=CC=C2C(=C1)C3=NNC4=CC=CC(=C43)C2=O
Procedure, shortened: as §1

[8] = compound: C1CCN(C1)C(=O)NC2=CC=CC(=C2)NC3=NC=C(C(=N3)NCCC4=CN=CN4)Br
Procedure, shortened: as §1

[9] = compound: C1CN(CCC1(CC2=CC=C(C=C2)Cl)N)C3=NC=NC4=C3C=CN4
Procedure, shortened: as §1

[10] = compound: C1COCCN1CCN2C3=CC=CC=C3N=C2NC(=O)C4=CC(=CC=C4)[N+](=O)[O-] [IRAK-1-4 Inhibitor I]
Procedure, shortened: as §1

Target	log2 fold change [1]	log2 fold change [2]	log2 fold change [3]	log2 fold change [4]	log2 fold change [5]	log2 fold change [6]	log2 fold change [7]	log2 fold change [8]	log2 fold change [9]	log2 fold change [10]
S100A11 (UniProt P31949)	inactive: 0.02	inactive: 0.034	inactive: 0.02	inactive: -0.008	inactive: -0.028	inactive: -0.009	inactive: -0.055	inactive: 0.071	inactive: 0.074	inactive: -0.025
RWDD4 (UniProt Q6NW29)	inactive: -0.049	inactive: 0.03	inactive: -0.012	inactive: -0.064	inactive: -0.021	inactive: 0.003	inactive: 0.041	inactive: -0.036	inactive: -0.002	inactive: -0.016
RPS8 (UniProt P62241)	inactive: -0.011	inactive: 0.105	inactive: 0.001	inactive: 0.028	inactive: -0.041	inactive: 0.007	inactive: 0.059	inactive: 0.022	inactive: -0.016	inactive: -0.001
RPS7 (UniProt P62081)	inactive: -0.012	inactive: -0.119	inactive: 0.016	inactive: 0.008	inactive: -0.035	inactive: 0.013	inactive: -0.022	inactive: 0.024	inactive: -0.001	inactive: 0.003
RPP14 (UniProt O95059)	inactive: -0.036	inactive: -0.181	inactive: 0.202	inactive: -0.019	inactive: -0.028	inactive: 0.005	inactive: -0.035	inactive: 0.016	inactive: 0.036	inactive: -0.038
RPL7A (UniProt P62424)	inactive: -0.002	inactive: -0.08	inactive: -0.005	inactive: -0.015	inactive: -0.012	inactive: 0.045	inactive: 0.025	inactive: 0.045	inactive: 0.008	inactive: 0.028
RRP9 (UniProt O43818)	inactive: -0.155	inactive: -0.02	inactive: -0.096	inactive: -0.041	inactive: -0.018	inactive: -0.006	inactive: -0.117	inactive: -0.229	inactive: -0.063	inactive: 0.004
RPS14 (UniProt P62263)	inactive: -0.021	inactive: 0.057	inactive: -0.013	inactive: -0.016	inactive: -0.051	inactive: -0.006	inactive: 0.011	inactive: 0.004	inactive: -0.017	inactive: 0.013
RPLP1 (UniProt P05386)	inactive: 0.006	inactive: 0.029	inactive: -0.008	inactive: 0.009	inactive: -0.023	inactive: 0.004	inactive: 0.034	inactive: 0.013	inactive: 0.014	inactive: 0.023
RSBN1L (UniProt Q6PCB5)	inactive: -0.015	inactive: -0.07	inactive: 0.001	inactive: -0.031	inactive: -0.08	inactive: 0.036	inactive: 0	inactive: 0.034	inactive: 0.025	inactive: -0.018
RPS15 (UniProt P62841)	inactive: -0.023	inactive: 0.061	inactive: 0.016	inactive: 0.005	inactive: -0.014	inactive: -0.024	inactive: 0.003	inactive: 0.047	inactive: 0.015	inactive: 0.039
RPS6KB1 (UniProt P23443)	inactive: -0.017	inactive: -0.018	inactive: -0.034	inactive: 0.013	inactive: -0.001	inactive: 0.083	active: 0.322	inactive: 0.085	inactive: 0.027	inactive: 0.028
RRAS (UniProt P10301)	inactive: -0.001	inactive: 0.05	inactive: -0.026	inactive: -0.02	inactive: 0.018	inactive: 0.004	inactive: 0.057	inactive: -0.003	inactive: -0.041	inactive: 0.029
RPL9 (UniProt P32969)	inactive: 0.007	inactive: -0.069	inactive: 0	inactive: 0.021	inactive: -0.009	inactive: 0.019	inactive: -0.019	inactive: 0.008	inactive: -0.011	inactive: 0.006
RTF1 (UniProt Q92541)	inactive: -0.038	inactive: -0.038	inactive: 0.035	inactive: -0.012	inactive: -0.019	inactive: 0.001	inactive: 0.008	inactive: -0.023	inactive: -0.029	inactive: -0.047
RPS28 (UniProt P62857)	inactive: -0.042	inactive: -0.213	inactive: 0.015	inactive: -0.061	inactive: -0.043	inactive: -0.011	inactive: -0.012	inactive: 0.046	inactive: -0.043	inactive: -0.024

Target	log2 fold change [1]	log2 fold change [2]	log2 fold change [3]	log2 fold change [4]	log2 fold change [5]	log2 fold change [6]	log2 fold change [7]	log2 fold change [8]	log2 fold change [9]	log2 fold change [10]
RRAGB (UniProt Q5VZM2)	inactive: -0.025	inactive: 0.022	inactive: -0.031	inactive: 0.014	inactive: 0.002	inactive: -0.012	inactive: -0.022	inactive: -0.039	inactive: -0.022	inactive: 0.027
RTN4IP1 (UniProt Q8WWV3)	inactive: -0.028	inactive: 0.031	inactive: -0.028	inactive: 0.065	inactive: -0.017	inactive: -0.003	inactive: 0.022	inactive: 0.033	inactive: -0.016	inactive: 0.011
RRAS2 (UniProt P62070)	inactive: -0.024	inactive: 0.033	inactive: 0.061	inactive: 0.002	inactive: 0.007	inactive: -0.033	inactive: -0.014	inactive: 0.024	inactive: -0.061	inactive: 0.027
RPS3 (UniProt P23396)	inactive: -0.023	inactive: 0.002	inactive: -0.019	inactive: -0.01	inactive: -0.006	inactive: -0.009	inactive: 0.012	inactive: -0.006	inactive: -0.03	inactive: -0.006
RPS17 (UniProt P08708)	inactive: -0.013	inactive: 0.008	inactive: -0.024	inactive: -0.042	inactive: -0.018	inactive: 0.006	inactive: 0.015	inactive: 0.014	inactive: -0.028	inactive: 0.01
RPUSD2 (UniProt Q8IZ73)	inactive: 0.025	inactive: -0.085	inactive: 0.017	inactive: -0.029	inactive: 0.012	inactive: 0.008	inactive: 0.003	inactive: -0.011	inactive: 0.024	inactive: -0.005
RRP15 (UniProt Q9Y3B9)	inactive: -0.06	inactive: -0.416	inactive: 0.007	inactive: -0.022	inactive: -0.029	inactive: 0.009	inactive: 0.026	inactive: 0.04	inactive: 0.006	inactive: -0.038
RRP8 (UniProt O43159)	inactive: -0.025	inactive: -0.004	inactive: -0.072	inactive: 0.016	inactive: -0.018	inactive: 0.034	inactive: -0.019	inactive: -0.009	inactive: 0.021	inactive: 0.015
RTCB (UniProt Q9Y3I0)	inactive: -0.018	inactive: -0.011	inactive: -0.035	inactive: -0.011	inactive: -0.001	inactive: 0.01	inactive: -0.003	inactive: -0.011	inactive: -0.001	inactive: -0.008
RTL10 (UniProt Q7L3V2)	inactive: 0.127	inactive: -0.017	inactive: 0.103	inactive: -0.034	inactive: 0.028	inactive: -0.029	inactive: 0.022	inactive: -0.05	inactive: -0.011	inactive: 0.135
RTN4 isoform 2 (UniProt Q9NQC3)	inactive: -0.043	inactive: -0.381	inactive: 0.092	inactive: 0.175	inactive: 0.072	inactive: 0.038	inactive: -0.058	inactive: -0.017	inactive: 0.098	inactive: 0.047
S100A13 (UniProt Q99584)	inactive: 0.012	inactive: 0.072	inactive: 0.029	inactive: 0.007	inactive: -0.007	inactive: -0.025	inactive: 0.037	inactive: 0.055	inactive: 0.035	inactive: -0.003
RPS23 (UniProt P62266)	inactive: -0.002	inactive: -0.066	inactive: -0.011	inactive: -0.058	inactive: -0.048	inactive: -0.001	inactive: 0.01	inactive: 0.01	inactive: 0.007	inactive: 0.018
RUFY1 (UniProt Q96T51)	inactive: -0.02	inactive: -0.016	inactive: 0.014	inactive: 0	inactive: -0.013	inactive: 0.013	inactive: -0.007	inactive: -0.01	inactive: 0.004	inactive: 0.009
RPS16 (UniProt P62249)	inactive: -0.039	inactive: -0.186	inactive: -0.033	inactive: -0.012	inactive: -0.024	inactive: -0.034	inactive: 0.029	inactive: 0.016	inactive: -0.018	inactive: -0.026

A portion from the list above, for reference:
Target	log2 fold change [1]	log2 fold change [2]	log2 fold change [3]	log2 fold change [4]	log2 fold change [5]	log2 fold change [6]	log2 fold change [7]	log2 fold change [8]	log2 fold change [9]	log2 fold change [10]
RWDD4 (UniProt Q6NW29)	inactive: -0.049	inactive: 0.03	inactive: -0.012	inactive: -0.064	inactive: -0.021	inactive: 0.003	inactive: 0.041	inactive: -0.036	inactive: -0.002	inactive: -0.016
RPS8 (UniProt P62241)	inactive: -0.011	inactive: 0.105	inactive: 0.001	inactive: 0.028	inactive: -0.041	inactive: 0.007	inactive: 0.059	inactive: 0.022	inactive: -0.016	inactive: -0.001
